Literature values in patent US20250090614A1, “COMPOSITIONS AND METHODS FOR IMPROVING LUNG FUNCTION” (priority 2023, published 2025).
For at least one compound, name, drawing or mass did not settle the structure.

Test system: Idiopathic pulmonary fibrosis (IPF)
Conditions: Dasatinib and Quercetin given together, pilot study, Justice et al. 2019; cited from earlier work

Cc1nc(Nc2ncc(C(=O)Nc3c(C)cccc3Cl)s2)cc(N2CCN(CCO)CC2)n1 [Dasatinib]
physical dysfunction in Idiopathic pulmonary fibrosis (IPF): showed promise
